Assay results reported in publication PMC8438336.
No constants are given. Whether binding was seen depends on the method and setting. Binding seen in cells or lysates may run through a third protein. Some binding calls cover weakened binding; strength is not graded here.

Chains of the proteins cited; added tags and fusions are not shown. Residues count along the entry.
UniProt P06536: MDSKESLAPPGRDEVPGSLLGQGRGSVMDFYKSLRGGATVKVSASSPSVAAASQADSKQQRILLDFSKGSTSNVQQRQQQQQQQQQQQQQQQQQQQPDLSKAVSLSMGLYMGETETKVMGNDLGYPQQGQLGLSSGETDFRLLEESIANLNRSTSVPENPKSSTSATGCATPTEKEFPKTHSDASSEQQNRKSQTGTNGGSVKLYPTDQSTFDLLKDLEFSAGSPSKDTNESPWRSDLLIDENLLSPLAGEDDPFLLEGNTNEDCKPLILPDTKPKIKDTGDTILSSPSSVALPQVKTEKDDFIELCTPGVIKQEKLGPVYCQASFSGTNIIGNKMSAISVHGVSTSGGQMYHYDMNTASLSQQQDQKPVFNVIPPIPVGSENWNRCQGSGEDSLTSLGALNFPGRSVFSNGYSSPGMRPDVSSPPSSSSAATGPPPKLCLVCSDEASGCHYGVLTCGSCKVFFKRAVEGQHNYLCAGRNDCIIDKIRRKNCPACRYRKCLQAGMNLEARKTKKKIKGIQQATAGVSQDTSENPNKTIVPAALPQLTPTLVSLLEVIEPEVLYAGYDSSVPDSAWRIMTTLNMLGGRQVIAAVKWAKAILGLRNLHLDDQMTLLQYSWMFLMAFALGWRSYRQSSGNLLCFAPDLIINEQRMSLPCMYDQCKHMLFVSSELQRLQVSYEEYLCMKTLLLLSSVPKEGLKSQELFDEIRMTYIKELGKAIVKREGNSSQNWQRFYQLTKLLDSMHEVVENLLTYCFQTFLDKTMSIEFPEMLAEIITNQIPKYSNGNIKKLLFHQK
UniProt P19490, residues 19-907: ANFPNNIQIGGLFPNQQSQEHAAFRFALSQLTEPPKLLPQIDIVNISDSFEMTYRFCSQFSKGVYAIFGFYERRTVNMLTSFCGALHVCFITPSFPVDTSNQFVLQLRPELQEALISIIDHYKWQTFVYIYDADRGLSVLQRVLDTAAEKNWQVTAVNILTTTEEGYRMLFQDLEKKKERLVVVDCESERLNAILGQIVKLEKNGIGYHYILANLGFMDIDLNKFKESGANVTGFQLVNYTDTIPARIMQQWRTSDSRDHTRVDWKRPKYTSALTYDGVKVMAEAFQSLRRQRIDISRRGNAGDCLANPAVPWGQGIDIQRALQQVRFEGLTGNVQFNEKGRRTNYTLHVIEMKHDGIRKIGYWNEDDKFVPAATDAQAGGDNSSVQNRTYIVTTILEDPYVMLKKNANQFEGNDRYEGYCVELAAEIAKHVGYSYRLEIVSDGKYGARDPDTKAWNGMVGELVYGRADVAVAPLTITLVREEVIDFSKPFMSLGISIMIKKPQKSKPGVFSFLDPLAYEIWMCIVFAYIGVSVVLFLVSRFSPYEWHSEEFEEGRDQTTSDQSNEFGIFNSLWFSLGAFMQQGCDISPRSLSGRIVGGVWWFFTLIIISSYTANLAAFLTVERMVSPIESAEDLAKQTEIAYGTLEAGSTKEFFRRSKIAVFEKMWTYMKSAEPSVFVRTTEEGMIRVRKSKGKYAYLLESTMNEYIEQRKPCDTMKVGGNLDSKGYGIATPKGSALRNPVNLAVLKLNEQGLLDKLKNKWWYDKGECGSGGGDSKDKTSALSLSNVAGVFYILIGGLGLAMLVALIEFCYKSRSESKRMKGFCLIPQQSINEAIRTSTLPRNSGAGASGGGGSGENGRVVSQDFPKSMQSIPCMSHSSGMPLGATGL

Target: glucocorticoid receptor (rat (endogenous in Wistar rat amygdala)) (UniProt P06536)
Test: co-IP; anti-GR polyclonal antibody immobilised on AminoLink Plus resin (Pierce Co-IP kit); 80 ug total amygdala protein lysate of each group (Con, MS, M+P+S, MS+S-M, each with or without L. paracasei HT6 supplementation), overnight at 4°C; eluate immunoblotted with anti-GluR1

Question: For “glutamate receptor GluR1 (AMPA receptor subunit) (from UniProt P19490 19-907)”, which binding is on record?
Answer: binds
